Source: article PMC8468769
No constants are given. Whether binding was seen depends on the method and setting. In cells and extracts the contact can be indirect. These calls come from enrichment with a bait or labelling near it, and not all partners need be listed.

Chains of the proteins cited; added tags and fusions are not shown. Lines headed by an entry give the natural chain unless they say otherwise; changes in a name come on top.
UniProt F7VN14: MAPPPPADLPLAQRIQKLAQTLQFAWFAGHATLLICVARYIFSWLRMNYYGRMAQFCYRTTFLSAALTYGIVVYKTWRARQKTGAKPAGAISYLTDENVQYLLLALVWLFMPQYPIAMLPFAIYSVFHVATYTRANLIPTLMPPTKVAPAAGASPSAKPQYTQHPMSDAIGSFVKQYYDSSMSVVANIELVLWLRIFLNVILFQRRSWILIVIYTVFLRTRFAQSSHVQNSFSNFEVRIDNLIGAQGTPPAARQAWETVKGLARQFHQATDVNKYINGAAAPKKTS

B1: TMEM16-like protein (SMAC_00943) (protein, UniProt F7VNJ0 1-738)
chain: MADPLSFYLQDDKAQPGTGSNFDVDYVIHYKLPTTSVKEKEEAEAAFIQLINALSAVGFATEVRPGGKSSLLVFTKIASEKLLTSQVYRYRIQDWLFGVRTSAPNQDLSKYLEEEPVSEAERLRLTYLLITKSKNEGGAGITAKVGKWKYVESVFPLHDHAFNRRWIKAWSGKYFLDEEDLNRIRDKFGERVAFYFAFLQSYFAFLLFPAAFGFAAWLILGKFSWFYAVVNSLWSVVFFEHWKTKEVDLAVRWGVRGVSRIQHPRPQFQYERETQDPITGEIVRVYSPFKRLSRQLLQIPFALACVVVLGGLIASCFSIEVFITEIYAGPFKQYLTFLPTVLLTIFMPTFSGLLTNLAEQLTKAENYETHDAHQASFIEKIFVLNFITSYLPILLTAFVYVPFGKLLVPYLDVFKVTAQSFTTMEKPVTKSWEINPDRLTQQVIYFTVTAQIVNFLTEVIVPYAKRKVFKKVQEVQSEFSGNGHELQIKDHPDEADFLKRVRNEAELDEYDVTVDYREMVVQFGYLSLFSVIWPLAACSFLANNWVEARSDALKIAIGSQRPVPWRADSIGPWLNSLGFLSWMGSITSAALVYLFNKHDINPDGTPWDISGWALLLSILFAEHIYFAVQLVVRSLVQKLDNPGLQKERAERYAMRKKLLEQTFGSHGHDADLTEEAQGPGHVSSGERITREALEEEARVNATKTPEQLFWLRQRGAAETIEIGRGLIAEVAAANQTKS
B2: cyclopropane-fatty-acyl-phospholipid synthase (SMAC_02133) (protein, UniProt F7W124 1-525)
chain: MSEPHSVSGAKPAYIFVETPAQPLSNTEKPKEDYGVRTTTFPAIKNAPLPADAAGTESFSNVLLFSILFGVPYYFSWKVGGGLKTTLFFALFTTLPLLAAFWVSHSMFSPRKNEKARFPGRPVEHYLTFKNPEDKLKYSGKNKIPMETFHEMYFNEEVDFNGDALDVMEYRHDWASFHFTYGLIKFFLTGMIPEVLMHTRSQDEEQVRDHYDRGDDFYSWFLGPRMIYTSGIISDANKEETLEELQDNKLAIVCEKADLKEGERLLDIGCGWGTLARFASVNYGVKATGITLGRNQTAWGNKALRTAGIPEEQSKILCMDYRDIPVSEGKYNKITCLEMAEHVGVRHFKGFMKQVYNMLDDDGIAVFQLAGLRKSWQYEDLVWGLFMNKHIFPGADASTPLGWYIDQFEKAGFEVRAVDTIGVHYSATLWRWYRNWLANREKVVAKYGKRWFRIWEFFLAYSTIIARQGSATCYQMTLVKNLNSTHRAEAIHTQQGLLGALRNTRANLKAWAQANAAEFPTVPAN
B3: fatty acid desaturase (SMAC_03650) (protein, UniProt F7VVS7 1-481)
chain: MASVSSALPIGNKPALRRTQTEATTDSYPATADASPFDSPLERSASNTSLSSLASDNVKVDKAEFGKLIDTYGNEFEVPDFTIKDIRDAIPKHCYERSALRSLSYVVRDMIYLAVTFYVWNKYVTPEYIPLKAARVVLWGLYTFMQGLFGTGLWVLAHECGHQAFSPSKLINDTVGWVLHSALLVPYFSWKFSHSKHHKATGNIERDMVFVPRTREQQASRIGRFAHELSELTEETPIYTLIHLLGQQLIGWPNYLMTNVTGHNNHEKQREGRGKGKVNGWFTGVNHFNPSSPLYDEREAPWIIVSDVGIAITATALVYLGNTFGWSNMFVWYFLPYLWVNHWLVAITYLQHTDPSLPHYTAEEWNFVRGAAATIDREFGFIGRHLLHGIIETHVLHHYVSTIPFYNADEASEAIKKVMGKHYRSDVQDGPIGFIKSMWKAARWCQWVEPTEGAEGKGKGVLFYRNQNNLGVKPAKLPKTN
B4: acyl-CoA desaturase 1 (SMAC_01733) (protein, UniProt F7VRP8 1-477)
chain: MASTSATDVPPEVQAVNVPDGTTDFIPLRGKKYDLKKPHITEMPITWGNWYKHVNWLNTTFIIFVPLAGLISAYWVTLQTKTLIFSIAYYYFAGLGITAGYHRLWAHTSYKATLPLKIWLAAGGAAAVEGSARWWSRDHRAHHRYTDTDKDPYSVRKGLLYSHIGWMVMKQNPKRIGRTDITDLNEDPVVVFQHKHYIKCVITMALIVPTLICGFGWGDFAGGFIYGGILRIFFIQQATFCVNSLAHWLGDQPFDDRNSPRDHVITALVTLGEGYHNFHHEFPSDFRNAIQWWQYDPTKWCIWAWKQLGLAYDLKKFPHNEIEKGRLQQQQKKLDQKRATLDWGIPLENLPVVSWDDFVQESKNGKAWIAVAGVIHDVGKFIKDHPGGKALINSAIGKDATAIFNGGVYNHSNAAHNLLSTMRVGVIRGGCEVEIWKRAQAENKDIATVTDSSGKKIVRAGLQPTRVTPPVTTADAA

biological target: SmPOM33-TagRFP-T (Sordaria macrospora) (UniProt F7VN14); assay: affinity purification with mass spectrometry; POM33-TagRFP-T precipitated from S. macrospora mycelium lysate (lysis buffer without NP-40) with anti-TagRFP-T antibody and Protein G Dynabeads, 4 °C; control free TagRFP-T strain; LC/MS with label-free quantification, FDR 0.01, S0 0.1; two experiments, seven samples

binding, binds:
B1, B2, B3, B4
